Some of these results come from one statement about several compounds together. Where a SMILES comes first, the peptide text is derived from it. Where no end group is shown, it is not given here.
System: cortical neurons that are obtained from chicken embryos
Assay: Oxidative stress by iron chloride, neuron viability by MTT
Format: cell-based
Conditions: FeCl2 1 mmol, 24 hours

| Compound | cell vitality increase |
| --- | --- |
| CC(C)[C@H](NC(=O)CNC(=O)[C@H](CCC(=O)O)NC(=O)[C@@H](N)CCCCN)C(=O)O [BH#11, KEGV] (H-KEGV-OH; N-terminus and C-terminus assumed) | over 200% |
| AKEGV [BH#10, AKEGV] | over 200% |
| Ac-SMAKEGV [BH#8, SMAKEGV] | over 200% |
| DVFMKGLSM [BH#28, DVFMKGLSM] | > 250% |
| DVFMKGLSMA [BH#27, DVFMKGLSMA] | > 250% |
| GLSMAKEGV [BH#6, GLSMAKEGV] | > 250% |
| MDVFMKGLSMA [BH#15, MDVFMKGLSMA] | > 250% |

System: cortical neurons that are obtained from chicken embryos
Assay: Oxidative stress by hydrogen superoxide, neuron viability by MTT
Format: cell-based
Conditions: H2O2 100 μm

| Compound | neuronal vitality increase to [%] |
| --- | --- |
| DVFMKGLS [BH#29, DVFMKGLS] | ≥ 145 |
| GLSMAK [BH#38, GLSMAK] | ≥ 145 |
| GLSMAKE [BH#37, GLSMAKE] | ≥ 145 |
| LSMAK [BH#46, LSMAK] | ≥ 145 |

Same assay, conditions: H2O2 100 μm; damaged control =100%

| Compound | effects compared to the damaged control (=100%) |
| --- | --- |
| Ac-KGLSMAKEGV [BH#5, KGLSMAKEGV] | over 200% |
| Ac-SMAKEGV [BH#8, SMAKEGV] | over 200% |
| DVFMKGLS [BH#29, DVFMKGLS] | over 200% |
| MAKEGV [BH#9, MAKEGV] | over 200% |

— patent publication US20060036073A1, “Neurotrophic and neuroprotective peptides” (priority 2002, published 2006)
